# Reference: the supplement of paper PMC12823440, “Inhibitors supercharge kinase turnover through native proteolytic circuits” (Nature, 2025)
# Sequences of proteins named here, by UniProt entry; tags and fusion partners are left off. A change or cut given only in a name is not applied to a line headed by its entry.
# UniProt P50613: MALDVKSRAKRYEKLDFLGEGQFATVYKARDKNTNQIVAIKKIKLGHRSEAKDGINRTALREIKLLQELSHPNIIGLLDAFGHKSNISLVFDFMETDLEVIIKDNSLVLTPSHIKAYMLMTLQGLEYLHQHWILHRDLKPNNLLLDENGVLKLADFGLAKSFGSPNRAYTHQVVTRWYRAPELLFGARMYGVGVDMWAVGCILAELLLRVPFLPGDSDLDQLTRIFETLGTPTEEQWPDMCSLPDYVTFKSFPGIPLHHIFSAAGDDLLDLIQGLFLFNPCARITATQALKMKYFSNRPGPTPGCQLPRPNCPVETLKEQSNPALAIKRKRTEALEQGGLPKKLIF
# UniProt P50750, whole entry: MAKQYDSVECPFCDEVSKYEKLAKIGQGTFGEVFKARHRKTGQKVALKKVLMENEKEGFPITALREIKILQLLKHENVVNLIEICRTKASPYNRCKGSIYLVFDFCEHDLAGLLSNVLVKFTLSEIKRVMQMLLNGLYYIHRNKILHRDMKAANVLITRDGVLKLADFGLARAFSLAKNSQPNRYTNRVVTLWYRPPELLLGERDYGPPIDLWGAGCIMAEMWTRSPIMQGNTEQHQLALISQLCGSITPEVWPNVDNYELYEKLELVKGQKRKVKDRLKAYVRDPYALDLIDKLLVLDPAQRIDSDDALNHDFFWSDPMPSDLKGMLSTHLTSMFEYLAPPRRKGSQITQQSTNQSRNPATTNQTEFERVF
# UniProt P48729: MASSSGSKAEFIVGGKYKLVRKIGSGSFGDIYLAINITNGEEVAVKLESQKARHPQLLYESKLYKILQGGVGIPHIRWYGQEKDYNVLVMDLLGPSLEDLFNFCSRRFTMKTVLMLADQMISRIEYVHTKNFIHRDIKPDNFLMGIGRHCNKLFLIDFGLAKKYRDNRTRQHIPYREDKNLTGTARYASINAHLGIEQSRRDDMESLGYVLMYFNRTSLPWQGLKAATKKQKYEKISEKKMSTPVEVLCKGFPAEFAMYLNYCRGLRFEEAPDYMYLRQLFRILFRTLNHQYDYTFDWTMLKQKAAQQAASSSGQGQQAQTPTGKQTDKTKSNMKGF
# UniProt Q92630: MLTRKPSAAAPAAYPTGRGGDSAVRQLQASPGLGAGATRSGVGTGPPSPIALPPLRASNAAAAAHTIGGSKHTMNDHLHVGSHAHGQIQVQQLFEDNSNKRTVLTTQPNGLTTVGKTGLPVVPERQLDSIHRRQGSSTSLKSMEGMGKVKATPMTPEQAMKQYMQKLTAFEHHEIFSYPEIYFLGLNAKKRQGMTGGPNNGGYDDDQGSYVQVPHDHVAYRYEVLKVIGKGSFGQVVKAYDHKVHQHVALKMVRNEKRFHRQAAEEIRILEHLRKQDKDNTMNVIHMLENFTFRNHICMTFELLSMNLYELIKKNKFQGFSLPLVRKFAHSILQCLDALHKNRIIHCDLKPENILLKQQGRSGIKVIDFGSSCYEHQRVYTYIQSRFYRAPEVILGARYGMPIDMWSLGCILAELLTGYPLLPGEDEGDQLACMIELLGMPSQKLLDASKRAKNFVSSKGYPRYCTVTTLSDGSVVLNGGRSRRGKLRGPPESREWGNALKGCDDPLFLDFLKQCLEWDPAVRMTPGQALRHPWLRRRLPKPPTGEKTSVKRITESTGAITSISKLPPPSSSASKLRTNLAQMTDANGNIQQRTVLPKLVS
# UniProt P29317, whole entry: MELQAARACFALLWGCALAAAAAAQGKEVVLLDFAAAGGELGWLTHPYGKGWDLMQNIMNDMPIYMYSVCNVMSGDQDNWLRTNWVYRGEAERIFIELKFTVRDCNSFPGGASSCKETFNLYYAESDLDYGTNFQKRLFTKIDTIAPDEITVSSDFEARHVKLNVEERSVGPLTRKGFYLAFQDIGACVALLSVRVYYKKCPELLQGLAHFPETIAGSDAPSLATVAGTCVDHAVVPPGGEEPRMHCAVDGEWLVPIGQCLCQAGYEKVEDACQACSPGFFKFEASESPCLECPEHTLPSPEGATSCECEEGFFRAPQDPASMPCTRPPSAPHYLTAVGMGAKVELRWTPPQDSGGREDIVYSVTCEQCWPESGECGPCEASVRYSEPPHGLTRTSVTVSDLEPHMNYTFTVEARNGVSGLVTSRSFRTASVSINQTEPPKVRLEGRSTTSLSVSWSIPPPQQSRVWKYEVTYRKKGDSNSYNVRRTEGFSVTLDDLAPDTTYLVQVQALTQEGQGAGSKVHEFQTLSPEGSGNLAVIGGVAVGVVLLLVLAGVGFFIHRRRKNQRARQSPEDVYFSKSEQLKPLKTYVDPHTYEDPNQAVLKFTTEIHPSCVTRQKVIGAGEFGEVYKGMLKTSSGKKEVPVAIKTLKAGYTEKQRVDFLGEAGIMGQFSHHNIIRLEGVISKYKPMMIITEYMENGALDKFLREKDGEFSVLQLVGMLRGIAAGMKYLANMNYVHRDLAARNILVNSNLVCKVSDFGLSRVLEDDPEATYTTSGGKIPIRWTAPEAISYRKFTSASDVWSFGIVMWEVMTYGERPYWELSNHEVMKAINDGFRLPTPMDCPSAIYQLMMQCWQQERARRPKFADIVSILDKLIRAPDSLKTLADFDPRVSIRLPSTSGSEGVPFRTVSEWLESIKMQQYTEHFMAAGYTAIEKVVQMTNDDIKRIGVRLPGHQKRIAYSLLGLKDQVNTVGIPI
# UniProt Q15303, whole entry R711C: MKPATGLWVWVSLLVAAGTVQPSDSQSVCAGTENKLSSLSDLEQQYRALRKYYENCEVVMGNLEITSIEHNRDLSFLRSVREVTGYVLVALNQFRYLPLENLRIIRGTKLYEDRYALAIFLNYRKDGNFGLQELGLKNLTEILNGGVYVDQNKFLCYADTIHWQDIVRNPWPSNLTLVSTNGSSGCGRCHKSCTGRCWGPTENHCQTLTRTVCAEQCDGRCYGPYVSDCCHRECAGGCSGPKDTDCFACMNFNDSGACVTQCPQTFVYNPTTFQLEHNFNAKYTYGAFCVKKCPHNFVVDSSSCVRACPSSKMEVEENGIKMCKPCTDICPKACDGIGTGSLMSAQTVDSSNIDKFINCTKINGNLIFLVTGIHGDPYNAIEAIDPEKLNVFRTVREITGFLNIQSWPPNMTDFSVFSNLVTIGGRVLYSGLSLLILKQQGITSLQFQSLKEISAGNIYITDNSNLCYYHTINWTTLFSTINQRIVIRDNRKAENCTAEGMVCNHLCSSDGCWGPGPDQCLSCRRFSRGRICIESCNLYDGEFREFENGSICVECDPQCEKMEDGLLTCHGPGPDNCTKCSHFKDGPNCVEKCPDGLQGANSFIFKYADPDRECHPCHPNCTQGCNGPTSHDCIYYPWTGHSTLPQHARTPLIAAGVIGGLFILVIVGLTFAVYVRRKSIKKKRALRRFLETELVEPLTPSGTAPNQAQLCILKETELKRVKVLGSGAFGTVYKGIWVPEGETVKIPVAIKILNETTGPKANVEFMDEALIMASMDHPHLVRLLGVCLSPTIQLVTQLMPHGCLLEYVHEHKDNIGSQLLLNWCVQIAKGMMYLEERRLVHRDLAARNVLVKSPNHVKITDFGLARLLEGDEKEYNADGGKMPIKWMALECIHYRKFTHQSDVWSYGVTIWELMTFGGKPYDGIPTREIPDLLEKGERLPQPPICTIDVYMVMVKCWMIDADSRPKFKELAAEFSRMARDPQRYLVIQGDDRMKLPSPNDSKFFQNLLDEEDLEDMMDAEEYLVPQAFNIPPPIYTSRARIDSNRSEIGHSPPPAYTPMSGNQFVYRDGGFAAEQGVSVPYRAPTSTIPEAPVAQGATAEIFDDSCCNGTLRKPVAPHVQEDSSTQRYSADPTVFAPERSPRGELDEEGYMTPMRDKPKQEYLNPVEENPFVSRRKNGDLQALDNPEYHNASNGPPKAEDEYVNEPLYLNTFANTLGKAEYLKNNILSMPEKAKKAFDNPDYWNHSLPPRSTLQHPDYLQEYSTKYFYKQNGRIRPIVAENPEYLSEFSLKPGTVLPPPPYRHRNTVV
# UniProt O96017, whole entry: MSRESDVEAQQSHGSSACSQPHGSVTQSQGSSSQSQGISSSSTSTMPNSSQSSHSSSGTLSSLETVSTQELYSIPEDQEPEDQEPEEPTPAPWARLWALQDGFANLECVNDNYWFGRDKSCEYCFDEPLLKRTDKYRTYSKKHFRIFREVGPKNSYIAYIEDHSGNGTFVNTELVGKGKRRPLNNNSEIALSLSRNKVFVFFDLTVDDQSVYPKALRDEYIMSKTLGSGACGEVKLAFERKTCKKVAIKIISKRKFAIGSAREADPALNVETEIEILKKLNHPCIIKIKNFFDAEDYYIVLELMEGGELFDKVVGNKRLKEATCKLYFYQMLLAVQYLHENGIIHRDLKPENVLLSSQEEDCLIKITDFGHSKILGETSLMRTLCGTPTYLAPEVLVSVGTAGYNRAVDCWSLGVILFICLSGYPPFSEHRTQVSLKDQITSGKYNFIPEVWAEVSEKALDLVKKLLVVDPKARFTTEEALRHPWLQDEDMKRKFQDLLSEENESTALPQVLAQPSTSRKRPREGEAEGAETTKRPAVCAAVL
# UniProt P41240: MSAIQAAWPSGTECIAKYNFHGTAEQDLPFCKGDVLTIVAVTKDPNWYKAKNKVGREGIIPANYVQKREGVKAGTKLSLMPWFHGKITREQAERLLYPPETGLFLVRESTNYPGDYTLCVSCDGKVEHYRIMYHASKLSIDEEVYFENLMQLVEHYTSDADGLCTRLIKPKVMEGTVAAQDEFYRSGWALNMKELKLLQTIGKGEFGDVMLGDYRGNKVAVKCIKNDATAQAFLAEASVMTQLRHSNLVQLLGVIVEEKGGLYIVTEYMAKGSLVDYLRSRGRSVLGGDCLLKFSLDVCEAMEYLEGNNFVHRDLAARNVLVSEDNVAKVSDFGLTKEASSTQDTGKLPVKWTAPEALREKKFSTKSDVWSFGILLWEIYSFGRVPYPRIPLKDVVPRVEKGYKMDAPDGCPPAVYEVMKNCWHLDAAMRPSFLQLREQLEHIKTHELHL
# UniProt P48730: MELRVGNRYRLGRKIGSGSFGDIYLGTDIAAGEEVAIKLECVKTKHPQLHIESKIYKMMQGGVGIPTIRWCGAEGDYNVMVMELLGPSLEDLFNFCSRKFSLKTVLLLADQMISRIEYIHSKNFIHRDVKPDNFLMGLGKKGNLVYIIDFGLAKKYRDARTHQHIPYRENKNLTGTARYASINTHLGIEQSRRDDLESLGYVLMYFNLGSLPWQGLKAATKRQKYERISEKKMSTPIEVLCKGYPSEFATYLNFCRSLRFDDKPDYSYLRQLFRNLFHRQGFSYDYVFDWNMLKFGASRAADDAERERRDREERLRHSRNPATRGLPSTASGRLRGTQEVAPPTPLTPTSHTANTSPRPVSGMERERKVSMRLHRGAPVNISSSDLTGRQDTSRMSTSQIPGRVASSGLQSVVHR
# UniProt P07333, whole entry: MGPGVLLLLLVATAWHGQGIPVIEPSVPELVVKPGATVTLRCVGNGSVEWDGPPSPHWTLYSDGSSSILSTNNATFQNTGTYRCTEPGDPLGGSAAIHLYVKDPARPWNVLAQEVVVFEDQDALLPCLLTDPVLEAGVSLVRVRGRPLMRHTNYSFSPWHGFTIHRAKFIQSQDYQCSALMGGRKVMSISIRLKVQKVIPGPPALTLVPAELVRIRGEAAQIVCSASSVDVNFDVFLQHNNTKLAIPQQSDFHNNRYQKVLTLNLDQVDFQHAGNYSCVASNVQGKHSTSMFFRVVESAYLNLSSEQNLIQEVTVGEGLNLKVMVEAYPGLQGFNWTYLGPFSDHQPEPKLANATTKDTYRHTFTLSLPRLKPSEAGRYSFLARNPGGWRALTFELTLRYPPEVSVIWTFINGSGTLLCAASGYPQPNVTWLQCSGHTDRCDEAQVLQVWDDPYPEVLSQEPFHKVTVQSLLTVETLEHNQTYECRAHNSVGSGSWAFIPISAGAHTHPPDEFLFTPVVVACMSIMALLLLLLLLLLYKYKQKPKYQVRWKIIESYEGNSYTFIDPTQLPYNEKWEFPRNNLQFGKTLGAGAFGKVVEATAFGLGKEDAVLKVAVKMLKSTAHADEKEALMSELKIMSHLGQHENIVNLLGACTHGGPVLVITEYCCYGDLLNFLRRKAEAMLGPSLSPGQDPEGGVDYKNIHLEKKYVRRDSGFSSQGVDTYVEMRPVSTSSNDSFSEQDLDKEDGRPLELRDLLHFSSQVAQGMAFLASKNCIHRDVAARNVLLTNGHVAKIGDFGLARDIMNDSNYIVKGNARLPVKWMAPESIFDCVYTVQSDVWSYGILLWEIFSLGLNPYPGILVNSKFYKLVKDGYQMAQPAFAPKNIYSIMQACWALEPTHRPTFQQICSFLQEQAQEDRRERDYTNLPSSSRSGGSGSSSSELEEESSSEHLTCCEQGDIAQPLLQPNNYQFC
# Some of the results follow. The calls rarely recur for the same compound in another form.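 Kinases were expressed as nanoluciferase fusions in K562 cells and luminescence was read every 4 h between 2 and 18 h as percent of control, DMSO set to 100% and a positive control to 0%. A time point counts as decreased when the signal drops significantly (2 sigma). The hit call is the authors' own, does not follow from the count of time points alone, and its rule is not shown.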
# Tests used:
# Test in all cases: kinase-Nluc reporter destabilization hit call (1 = scored as downregulated) (binary); higher = compound decreases kinase abundance
# Conditions in all cases: K562, 2-18 h
# [1] = target: CDK7 (UniProt P50613)
# [2] = target: CDK9 (UniProt P50750)
# [3] = target: CSNK1A1 (UniProt P48729)
# [4] = target: DYRK1B (UniProt Q9Y463)
# [5] = target: DYRK2 (UniProt Q92630)
# [6] = target: EGFR (UniProt P00533)
# [7] = target: EGFR_G719S (UniProt P00533)
# [8] = target: EGFR_G719S_T790M (UniProt P00533)
# [9] = target: EGFR_L718V (UniProt P00533)
# [10] = target: EGFR_L858R (UniProt P00533)
# [11] = target: EGFR_L861Q (UniProt P00533)
# [12] = target: EGFR_T790M (UniProt P00533)
# [13] = target: EPHA2 (UniProt P29317)
# [14] = target: ERBB3 (UniProt P21860)
# [15] = target: ERBB4_R711C (clone: ERBB4_mut) (UniProt Q15303)
# [16] = target: CHEK2 (UniProt O96017)
# [17] = target: CSK (UniProt P41240)
# [18] = target: CSNK1D (UniProt P48730)
# [19] = target: DDR1 (UniProt Q08345)
# [20] = target: CSF1R (UniProt P07333)
structure (smiles),measurement,setting,value
Cc1cc2ncnn2cc1Nc1ncc2c(n1)n(C1CCOCC1)c(=O)n2C,kinase-Nluc reporter destabilization hit call,[1]; 10 µM,inactive: 0
same,kinase-Nluc reporter destabilization hit call,[2]; 10 µM,inactive: 0
same,kinase-Nluc reporter destabilization hit call,[3]; 10 µM,inactive: 0
same,kinase-Nluc reporter destabilization hit call,[4]; 10 µM,inactive: 0
same,kinase-Nluc reporter destabilization hit call,[5]; 10 µM,inactive: 0
same,kinase-Nluc reporter destabilization hit call,[6]; 10 µM,inactive: 0
same,kinase-Nluc reporter destabilization hit call,[7]; 10 µM,inactive: 0
same,kinase-Nluc reporter destabilization hit call,[8]; 10 µM,inactive: 0
same,kinase-Nluc reporter destabilization hit call,[9]; 10 µM,inactive: 0
same,kinase-Nluc reporter destabilization hit call,[10]; 10 µM,inactive: 0
same,kinase-Nluc reporter destabilization hit call,[11]; 10 µM,inactive: 0
same,kinase-Nluc reporter destabilization hit call,[12]; 10 µM,inactive: 0
same,kinase-Nluc reporter destabilization hit call,[13]; 10 µM,inactive: 0
same,kinase-Nluc reporter destabilization hit call,[14]; 10 µM,inactive: 0
same,kinase-Nluc reporter destabilization hit call,[15]; 10 µM,inactive: 0
Cc1nc(Nc2ncc(C(=O)Nc3c(C)cccc3Cl)s2)cc(N2CCN(CCO)CC2)n1 [Dasatinib],kinase-Nluc reporter destabilization hit call,[1]; 2.5 µM,inactive: 0
same,kinase-Nluc reporter destabilization hit call,[2]; 2.5 µM,inactive: 0
same,kinase-Nluc reporter destabilization hit call,[16]; 2.5 µM,inactive: 0
same,kinase-Nluc reporter destabilization hit call,[17]; 2.5 µM,inactive: 0
same,kinase-Nluc reporter destabilization hit call,[3]; 2.5 µM,inactive: 0
same,kinase-Nluc reporter destabilization hit call,[18]; 2.5 µM,inactive: 0
same,kinase-Nluc reporter destabilization hit call,[19]; 2.5 µM,active: 1
same,kinase-Nluc reporter destabilization hit call,[4]; 2.5 µM,inactive: 0
same,kinase-Nluc reporter destabilization hit call,[5]; 2.5 µM,inactive: 0
same,kinase-Nluc reporter destabilization hit call,[14]; 2.5 µM,inactive: 0
same,kinase-Nluc reporter destabilization hit call,[15]; 2.5 µM,inactive: 0
CNC(=O)c1cc(Oc2ccc(NC(=O)Nc3ccc(Cl)c(C(F)(F)F)c3)cc2)ccn1 [Sorafenib],kinase-Nluc reporter destabilization hit call,[1]; 2.5 µM,inactive: 0
same,kinase-Nluc reporter destabilization hit call,[2]; 2.5 µM,inactive: 0
same,kinase-Nluc reporter destabilization hit call,[16]; 2.5 µM,inactive: 0
same,kinase-Nluc reporter destabilization hit call,[17]; 2.5 µM,inactive: 0
same,kinase-Nluc reporter destabilization hit call,[3]; 2.5 µM,inactive: 0
same,kinase-Nluc reporter destabilization hit call,[18]; 2.5 µM,inactive: 0
same,kinase-Nluc reporter destabilization hit call,[19]; 2.5 µM,inactive: 0
same,kinase-Nluc reporter destabilization hit call,[4]; 2.5 µM,inactive: 0
same,kinase-Nluc reporter destabilization hit call,[5]; 2.5 µM,inactive: 0
same,kinase-Nluc reporter destabilization hit call,[13]; 2.5 µM,inactive: 0
same,kinase-Nluc reporter destabilization hit call,[14]; 2.5 µM,inactive: 0
same,kinase-Nluc reporter destabilization hit call,[15]; 2.5 µM,inactive: 0
NC(=O)c1c(OCc2c(F)cc(Br)cc2F)nsc1NC(=O)NCCCCN1CCCC1,kinase-Nluc reporter destabilization hit call,[1]; 2.5 µM,inactive: 0
same,kinase-Nluc reporter destabilization hit call,[2]; 2.5 µM,inactive: 0
same,kinase-Nluc reporter destabilization hit call,[16]; 2.5 µM,inactive: 0
same,kinase-Nluc reporter destabilization hit call,[20]; 2.5 µM,inactive: 0
same,kinase-Nluc reporter destabilization hit call,[17]; 2.5 µM,inactive: 0
same,kinase-Nluc reporter destabilization hit call,[3]; 2.5 µM,inactive: 0
same,kinase-Nluc reporter destabilization hit call,[18]; 2.5 µM,inactive: 0
same,kinase-Nluc reporter destabilization hit call,[19]; 2.5 µM,inactive: 0
same,kinase-Nluc reporter destabilization hit call,[4]; 2.5 µM,inactive: 0
same,kinase-Nluc reporter destabilization hit call,[5]; 2.5 µM,inactive: 0
same,kinase-Nluc reporter destabilization hit call,[13]; 2.5 µM,inactive: 0
same,kinase-Nluc reporter destabilization hit call,[14]; 2.5 µM,inactive: 0
same,kinase-Nluc reporter destabilization hit call,[15]; 2.5 µM,inactive: 0
O=C(O)c1ccc(Nc2ncc3c(n2)-c2ccc(Cl)cc2C(c2c(F)cccc2F)=NC3)cc1,kinase-Nluc reporter destabilization hit call,[1]; 10 µM,inactive: 0
same,kinase-Nluc reporter destabilization hit call,[16]; 10 µM,inactive: 0
same,kinase-Nluc reporter destabilization hit call,[20]; 10 µM,inactive: 0
same,kinase-Nluc reporter destabilization hit call,[17]; 10 µM,inactive: 0
same,kinase-Nluc reporter destabilization hit call,[3]; 10 µM,inactive: 0
same,kinase-Nluc reporter destabilization hit call,[18]; 10 µM,inactive: 0
same,kinase-Nluc reporter destabilization hit call,[4]; 10 µM,inactive: 0
same,kinase-Nluc reporter destabilization hit call,[5]; 10 µM,inactive: 0
same,kinase-Nluc reporter destabilization hit call,[6]; 10 µM,inactive: 0
same,kinase-Nluc reporter destabilization hit call,[7]; 10 µM,inactive: 0
same,kinase-Nluc reporter destabilization hit call,[8]; 10 µM,inactive: 0
same,kinase-Nluc reporter destabilization hit call,[9]; 10 µM,inactive: 0
same,kinase-Nluc reporter destabilization hit call,[10]; 10 µM,inactive: 0
same,kinase-Nluc reporter destabilization hit call,[11]; 10 µM,inactive: 0
same,kinase-Nluc reporter destabilization hit call,[12]; 10 µM,inactive: 0
same,kinase-Nluc reporter destabilization hit call,[14]; 10 µM,inactive: 0
same,kinase-Nluc reporter destabilization hit call,[15]; 10 µM,inactive: 0
CC1(C)CNc2cc(NC(=O)c3cccnc3NCc3ccncc3)ccc21 [Motesanib (Diphosphate)],kinase-Nluc reporter destabilization hit call,[1]; 2.5 µM,inactive: 0
same,kinase-Nluc reporter destabilization hit call,[2]; 2.5 µM,inactive: 0
same,kinase-Nluc reporter destabilization hit call,[16]; 2.5 µM,inactive: 0
same,kinase-Nluc reporter destabilization hit call,[17]; 2.5 µM,inactive: 0
same,kinase-Nluc reporter destabilization hit call,[3]; 2.5 µM,inactive: 0
same,kinase-Nluc reporter destabilization hit call,[18]; 2.5 µM,inactive: 0
same,kinase-Nluc reporter destabilization hit call,[4]; 2.5 µM,inactive: 0
same,kinase-Nluc reporter destabilization hit call,[5]; 2.5 µM,inactive: 0
same,kinase-Nluc reporter destabilization hit call,[13]; 2.5 µM,inactive: 0
same,kinase-Nluc reporter destabilization hit call,[14]; 2.5 µM,inactive: 0
same,kinase-Nluc reporter destabilization hit call,[15]; 2.5 µM,inactive: 0
CNC(=O)c1cc(Oc2ccc(NC(=O)Nc3ccc(Cl)c(C(F)(F)F)c3)cc2)ccn1 [Sorafenib (Tosylate)],kinase-Nluc reporter destabilization hit call,[1]; 10 µM,inactive: 0
same,kinase-Nluc reporter destabilization hit call,[2]; 10 µM,inactive: 0
same,kinase-Nluc reporter destabilization hit call,[16]; 10 µM,inactive: 0
same,kinase-Nluc reporter destabilization hit call,[17]; 10 µM,inactive: 0
same,kinase-Nluc reporter destabilization hit call,[3]; 10 µM,inactive: 0
same,kinase-Nluc reporter destabilization hit call,[18]; 10 µM,inactive: 0
same,kinase-Nluc reporter destabilization hit call,[19]; 10 µM,inactive: 0
same,kinase-Nluc reporter destabilization hit call,[4]; 10 µM,inactive: 0
same,kinase-Nluc reporter destabilization hit call,[5]; 10 µM,inactive: 0
same,kinase-Nluc reporter destabilization hit call,[13]; 10 µM,inactive: 0
same,kinase-Nluc reporter destabilization hit call,[14]; 10 µM,inactive: 0
same,kinase-Nluc reporter destabilization hit call,[15]; 10 µM,inactive: 0
CN1CCN(c2ccc3nc(-c4c(N)c5c(F)cccc5[nH]c4=O)[nH]c3c2)CC1 [Dovitinib (lactate)],kinase-Nluc reporter destabilization hit call,[1]; 2.5 µM,inactive: 0
same,kinase-Nluc reporter destabilization hit call,[2]; 2.5 µM,inactive: 0
same,kinase-Nluc reporter destabilization hit call,[16]; 2.5 µM,inactive: 0
same,kinase-Nluc reporter destabilization hit call,[17]; 2.5 µM,inactive: 0
same,kinase-Nluc reporter destabilization hit call,[3]; 2.5 µM,inactive: 0
same,kinase-Nluc reporter destabilization hit call,[18]; 2.5 µM,inactive: 0
same,kinase-Nluc reporter destabilization hit call,[19]; 2.5 µM,inactive: 0
same,kinase-Nluc reporter destabilization hit call,[4]; 2.5 µM,inactive: 0
same,kinase-Nluc reporter destabilization hit call,[5]; 2.5 µM,inactive: 0
same,kinase-Nluc reporter destabilization hit call,[6]; 2.5 µM,inactive: 0
same,kinase-Nluc reporter destabilization hit call,[7]; 2.5 µM,inactive: 0
same,kinase-Nluc reporter destabilization hit call,[8]; 2.5 µM,inactive: 0
same,kinase-Nluc reporter destabilization hit call,[9]; 2.5 µM,inactive: 0
same,kinase-Nluc reporter destabilization hit call,[10]; 2.5 µM,inactive: 0
same,kinase-Nluc reporter destabilization hit call,[11]; 2.5 µM,inactive: 0
same,kinase-Nluc reporter destabilization hit call,[12]; 2.5 µM,inactive: 0
same,kinase-Nluc reporter destabilization hit call,[13]; 2.5 µM,inactive: 0
same,kinase-Nluc reporter destabilization hit call,[14]; 2.5 µM,inactive: 0
Cc1ccc(Nc2nccc(N(C)c3ccc4c(C)n(C)nc4c3)n2)cc1S(N)(=O)=O [Pazopanib],kinase-Nluc reporter destabilization hit call,[1]; 10 µM,inactive: 0
same,kinase-Nluc reporter destabilization hit call,[2]; 10 µM,inactive: 0
same,kinase-Nluc reporter destabilization hit call,[16]; 10 µM,inactive: 0
same,kinase-Nluc reporter destabilization hit call,[17]; 10 µM,inactive: 0
same,kinase-Nluc reporter destabilization hit call,[3]; 10 µM,inactive: 0
same,kinase-Nluc reporter destabilization hit call,[18]; 10 µM,inactive: 0
same,kinase-Nluc reporter destabilization hit call,[19]; 10 µM,inactive: 0
same,kinase-Nluc reporter destabilization hit call,[4]; 10 µM,inactive: 0
same,kinase-Nluc reporter destabilization hit call,[5]; 10 µM,inactive: 0
same,kinase-Nluc reporter destabilization hit call,[6]; 10 µM,inactive: 0
same,kinase-Nluc reporter destabilization hit call,[7]; 10 µM,inactive: 0
same,kinase-Nluc reporter destabilization hit call,[8]; 10 µM,inactive: 0
same,kinase-Nluc reporter destabilization hit call,[9]; 10 µM,inactive: 0
same,kinase-Nluc reporter destabilization hit call,[10]; 10 µM,inactive: 0
same,kinase-Nluc reporter destabilization hit call,[11]; 10 µM,inactive: 0
same,kinase-Nluc reporter destabilization hit call,[12]; 10 µM,inactive: 0
same,kinase-Nluc reporter destabilization hit call,[13]; 10 µM,inactive: 0
same,kinase-Nluc reporter destabilization hit call,[14]; 10 µM,inactive: 0
same,kinase-Nluc reporter destabilization hit call,[15]; 10 µM,inactive: 0

# For convenience, some entries already given.
structure (smiles),measurement,setting,value
CN1CCN(c2ccc3nc(-c4c(N)c5c(F)cccc5[nH]c4=O)[nH]c3c2)CC1 [Dovitinib (lactate)],kinase-Nluc reporter destabilization hit call,[14]; 2.5 µM,inactive: 0
Cc1ccc(Nc2nccc(N(C)c3ccc4c(C)n(C)nc4c3)n2)cc1S(N)(=O)=O [Pazopanib],kinase-Nluc reporter destabilization hit call,[1]; 10 µM,inactive: 0
same,kinase-Nluc reporter destabilization hit call,[2]; 10 µM,inactive: 0
same,kinase-Nluc reporter destabilization hit call,[16]; 10 µM,inactive: 0
same,kinase-Nluc reporter destabilization hit call,[17]; 10 µM,inactive: 0
same,kinase-Nluc reporter destabilization hit call,[3]; 10 µM,inactive: 0
same,kinase-Nluc reporter destabilization hit call,[18]; 10 µM,inactive: 0

# Reprinted at random: 3 entries already listed.
structure (smiles),measurement,setting,value
O=C(O)c1ccc(Nc2ncc3c(n2)-c2ccc(Cl)cc2C(c2c(F)cccc2F)=NC3)cc1,kinase-Nluc reporter destabilization hit call,[12]; 10 µM,inactive: 0
Cc1cc2ncnn2cc1Nc1ncc2c(n1)n(C1CCOCC1)c(=O)n2C,kinase-Nluc reporter destabilization hit call,[11]; 10 µM,inactive: 0
same,kinase-Nluc reporter destabilization hit call,[3]; 10 µM,inactive: 0
